From a melanoma drug combination screen (doi:10.1371/journal.pone.0140310); values rounded.

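The test systems are human melanoma cell lines, treated with two drugs together for 72 h and then stained and imaged. Values are the share of nuclei positive for cleaved PARP as a percentage of the same share in the DMSO control: 100 is the control level, higher means more apoptosis. Every drug was used at one fixed concentration, the higher of two screened. The file gives one value for each pair and line, without errors, so small differences may be noise. The marker varies much from line to line, for technical or biological reasons.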
An unselected part of the screen is shown.

Drug key:
MK-2206, 2000 nM: NC1(c2ccc(-c3nc4ccn5c(=O)[nH]nc5c4cc3-c3ccccc3)cc2)CCC1
nilutamide, 5000 nM: CC1(C)NC(=O)N(c2ccc([N+](=O)[O-])c(C(F)(F)F)c2)C1=O
JZL184, 5000 nM: O=C(Oc1ccc([N+](=O)[O-])cc1)N1CCC(C(O)(c2ccc3c(c2)OCO3)c2ccc3c(c2)OCO3)CC1
tanespimycin, 10 nM: C=CCNC1=C2C[C@@H](C)C[C@H](OC)[C@H](O)[C@@H](C)/C=C(\C)[C@H](OC(N)=O)[C@@H](OC)/C=C\C=C(/C)C(=O)NC(=CC1=O)C2=O
GW2580, 5000 nM: COc1ccc(COc2ccc(Cc3cnc(N)nc3N)cc2OC)cc1
XAV939, 10000 nM: Oc1nc(-c2ccc(C(F)(F)F)cc2)nc2c1CSCC2
RKI-983, 2000 nM: C[C@@H](N)c1ccc(C(=O)Nc2ccnc3[nH]ccc23)cc1
OSI-906, 2000 nM: C[C@]1(O)C[C@@H](c2nc(-c3ccc4ccc(-c5ccccc5)nc4c3)c3c(N)nccn32)C1

Combination	RPMI-7951
GW2580 + OSI-906	59.9
nilutamide + RKI-983	264
MK-2206 + nilutamide	236
JZL184 + XAV939	81.0
nilutamide + XAV939	191
XAV939 + MK-2206	60.4
GW2580 + MK-2206	81.6
XAV939 + OSI-906	102
GW2580 + JZL184	90.2
RKI-983 + GW2580	154
RKI-983 + OSI-906	69.9
tanespimycin + JZL184	1060
tanespimycin + MK-2206	767
GW2580 + XAV939	59.7
OSI-906 + nilutamide	136
tanespimycin + GW2580	259
JZL184 + RKI-983	439
OSI-906 + MK-2206	93.8
OSI-906 + JZL184	233
nilutamide + tanespimycin	597
tanespimycin + RKI-983	1270
RKI-983 + XAV939	96.6
JZL184 + nilutamide	42.5
MK-2206 + RKI-983	155
XAV939 + tanespimycin	212
nilutamide + GW2580	54.2
tanespimycin + OSI-906	466

Once more, the final 3:

{"combination": "XAV939 + tanespimycin", "RPMI-7951": 212}
{"combination": "nilutamide + GW2580", "RPMI-7951": 54.2}
{"combination": "tanespimycin + OSI-906", "RPMI-7951": 466}